Test results from paper PMC5595311.
These are yes or no findings as the source states them, for the method shown. In cells and extracts the contact can be indirect. Tags and fused reporters may be left off the sequences shown.

Target: T1, TRIF (Flag- or HA-tagged) (murine) (UniProt Q80UF7)
T1 sequence: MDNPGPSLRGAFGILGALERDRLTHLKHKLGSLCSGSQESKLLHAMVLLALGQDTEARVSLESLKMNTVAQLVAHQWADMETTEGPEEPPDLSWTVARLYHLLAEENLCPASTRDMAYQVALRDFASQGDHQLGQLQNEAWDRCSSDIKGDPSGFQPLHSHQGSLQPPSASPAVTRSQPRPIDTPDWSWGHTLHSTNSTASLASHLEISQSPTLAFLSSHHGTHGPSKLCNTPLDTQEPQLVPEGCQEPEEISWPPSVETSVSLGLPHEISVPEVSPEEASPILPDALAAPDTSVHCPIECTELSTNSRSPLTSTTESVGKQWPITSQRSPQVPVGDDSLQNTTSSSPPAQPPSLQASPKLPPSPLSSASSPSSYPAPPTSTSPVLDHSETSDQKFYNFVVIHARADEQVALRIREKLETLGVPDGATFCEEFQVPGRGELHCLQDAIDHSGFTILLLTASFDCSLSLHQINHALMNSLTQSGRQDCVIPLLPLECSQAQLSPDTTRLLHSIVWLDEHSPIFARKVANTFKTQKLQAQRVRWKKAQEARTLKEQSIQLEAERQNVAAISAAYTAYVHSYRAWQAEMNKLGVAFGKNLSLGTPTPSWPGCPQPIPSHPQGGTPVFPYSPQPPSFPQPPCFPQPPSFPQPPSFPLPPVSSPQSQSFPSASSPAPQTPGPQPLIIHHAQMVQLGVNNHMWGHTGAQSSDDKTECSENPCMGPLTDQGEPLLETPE
Test: co-IP; HEK293 cells transfected with the indicated plasmids for 24 hours, co-immunoprecipitation and immunoblotting with the indicated antibodies

binding: no binding
B1: NDP52 (Flag- or HA-tagged) (protein, UniProt A2A6M5 1-331)
chain: MDQCPIPTLLEHGNFSQVLFNNVEKFYAPRGDIMCYYTLTEKFIPRRKDWIGIFKVGWKTTQEYYTFMWAPLPKDQNKDSATQQEIQFKAYYLPKDVERYQFCYVDEDGLVRGTSVPFQFCPDPDEDIMVVINKEKVEEMEQLSEELYQQNQELKDKYADLHEQLQRKQVALEATQRVNKTLEHKVEEKASWEKEKASWEEEKASWEEEKASWEEEKASWEEEKASWEEEKASWEEEKASWEEEKASWEEEKASWEEEKASWEEEKASWEEEKASWEEEKASWEEEKASWEKEKASWEEEKASWEKEKAPWEVEKAPWKEVKAYWWNDLHR
